The other results are listed elsewhere or left out. These are further read-outs of the screen, such as a control signal, another cell line or another target. No call is given for them. Compounds called inactive in the main read-out are mostly missing here. Words in brackets tell the shape of the fitted curve; partial curves, single points and poor fits give uncertain potencies.

A short description of the experiment: IkB Signaling. The conditions noted are these: ABC-DLBCL IkBa-CBG/CBR dual luciferase ratio (green luciferase fused to IkBa over red control in OCI-Ly3 lymphoma cells), 4 h; measured here: control luc red channel unless noted. In outline: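 In this assay, an IκBα–CBG68 fusion accumulates when IKK-driven degradation is blocked; native CBR normalizes for cell number. OCI-Ly3 cells were treated 4 h with compound and doxycycline, then green and red light read after Chroma-Glo addition.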
As to `CC(C)(C)C1CCc2oc3ccc(NS(=O)(=O)c4ccc(C(=O)O)cc4)cc3c2C1` (stereo not drawn), the AC50 is 12.6 µM [falling, partial curve].

For `COc1ccc(CCNc2ncnc3c2cnn3-c2cc(Cl)ccc2C)cc1`, the AC50 is 20 µM [falling, partial curve].

For `Cc1ccc(NC(=O)c2cc(S(=O)(=O)NCCc3ccc(Cl)cc3)ccc2F)cc1`, the AC50 is 25.1 µM [falling, partial curve].

For `CC1CCCCN1C(=O)c1cc(-c2ccc(Br)cc2)on1` (stereo not drawn), the half-maximal activity concentration (AC50) was 15.8 µM [falling, partial curve, poor fit].

Turning to `CCOC(=O)CSc1nc2c(sc3ccccc32)c(=O)n1CCO`, the half-maximal activity concentration (AC50) is 39.8 µM [falling, single point].

`COc1cc(OC)cc(C(=O)Nc2ncc3c(n2)CC(C)CC3=O)c1` (stereo not drawn): the concentration at half-maximal activity (AC50) is 5.01 µM [falling, partial curve].

In the case of `Cc1csc2nc(COc3cccc(NC(=O)c4ccccc4F)c3)cc(=O)n12`, the AC50 was 1 µM [rising, partial curve].

Consider `Cc1nn(CC(=O)N2CCN(c3ccc(Cl)cc3)CC2)c(=O)c2cccn12`, for which the concentration at half-maximal activity (AC50) is 15.8 µM [falling, partial curve].

For the compound `Cc1ccc2c(=O)cc(C(=O)Nc3ccc(S(=O)(=O)Nc4ncccn4)cc3)oc2c1C`, the AC50 was 15.8 µM [falling, partial curve].

For `O=C(CSc1nc2c([nH]c3ccccc32)c(=O)n1-c1ccc(Cl)cc1)c1ccccc1`, the AC50 is 3.16 µM [rising, partial curve].

Consider `COc1ccc(NCc2cccn2-c2nnc(N3CCCCC3)s2)cc1OC`, for which the AC50 is 39.8 µM [falling, single point].

Turning to `CCOc1ccc(NC(=O)c2c(NC(=O)Cc3ccccc3)sc3c2CCCCC3)cc1`, the concentration at half-maximal activity (AC50) is 3.98 µM [falling, full curve, poor fit].

For `Cc1ccc(NC(=O)CSc2cn(CC(=O)N3CCCC3)c3ccccc23)cc1Cl`, the half-maximal activity concentration (AC50) was 10 µM [falling, partial curve].

For `COc1cccc(CNC(=O)Cn2nc(-c3ccc(Cl)cc3)ccc2=O)c1`, the AC50 is 12.6 µM [falling, partial curve].

In the case of `COc1ccccc1-c1cc(C(=O)Nc2c(F)cc(F)cc2Br)no1`, the AC50 is 0.00251 µM [falling, full curve].

Regarding `COc1ccc2c(c1)c(=O)c(S(=O)(=O)c1ccccc1)cn2CC(=O)Nc1ccc(C)c(Cl)c1`, the AC50 was 7.94 µM [falling, partial curve].

Consider `COc1ccc(-n2cc(C(=O)NCCc3cc(OC)ccc3OC)c3ccccc3c2=O)cc1`, for which the AC50 was 25.1 µM [falling, single point].

With `CC1=C(C(=O)Nc2ccc(C)cc2C)C(c2cccs2)n2nc(SCc3cccc(C)c3)nc2N1` (stereo not drawn), the AC50 was 1.58 µM [falling, full curve].

Consider `CCCc1nn2c(=O)cc(COC(=O)c3ccccc3NC(=O)COc3ccccc3)nc2s1`, for which the AC50 is 15.8 µM [falling, partial curve].

Regarding `CCOC(=O)N1CCc2c(sc3c2C(=O)NC(c2cc(OC)c(OC)c(OC)c2)N3)C1` (stereo not drawn), the half-maximal activity concentration (AC50) was 20 µM [falling, single point].

Regarding `COc1ccccc1NC(=O)c1c(NCc2ccc(C)o2)sc2c1CCCCC2`, the concentration at half-maximal activity (AC50) was 15.8 µM [falling, partial curve].

As for `Cc1ccc(-c2nnc(SCC(=O)Nc3ccccc3F)o2)cc1`, the AC50 is 0.00794 µM [falling, full curve].

As to `COc1ccc(-c2cc(C(F)(F)F)n3nc(-c4ccccc4)cc3n2)cc1OC`, the half-maximal activity concentration (AC50) is 39.8 µM [falling, single point].

For `CCc1ccc(NC(=O)Cn2c(=O)n(CCC(C)C)c(=O)c3cccnc32)cc1`, the half-maximal activity concentration (AC50) is 3.98 µM [rising, single point].

As for `CCOC(=O)C1CCN(Cc2nc3ccccc3c(=O)n2-c2ccc(OCC)cc2)CC1`, the AC50 was 12.6 µM [falling, partial curve].

Turning to `Cc1cc(Cl)ccc1OCCCC(=O)Nc1cccnc1`, the AC50 is 31.6 µM [falling, single point].

With `CCCCSc1nnc2n(-c3ccc(OC)cc3)c(=O)c3c4c(sc3n12)COC(C(C)C)C4` (stereo not drawn), the AC50 was 7.94 µM [falling, full curve].

As to `COc1cc(CN2CCN(S(=O)(=O)c3ccc(NC(C)=O)cc3)CC2)cc(OC)c1OC`, the half-maximal activity concentration (AC50) is 1.58 µM [rising, partial curve].

As for `O=C1N(Cc2ccccc2Cl)c2ccccc2C1(O)c1c[nH]c2ccccc12` (stereo not drawn), the half-maximal activity concentration (AC50) is 25.1 µM [falling, single point].

In the case of `Cc1cc2nc(-c3cccnc3SCC(=O)NCc3ccco3)[nH]c2cc1C`, the AC50 is 15.8 µM [falling, partial curve].

For the compound `O=C(COC(=O)c1ccccc1NC(=O)c1ccco1)Nc1ccc2c(c1)OCO2`, the AC50 is 20 µM [falling, partial curve].

For the compound `CCn1cc(C(=O)NCCc2ccc(OC)c(OC)c2)c(=O)c2cc(S(=O)(=O)N3CCCCCC3)ccc21`, the concentration at half-maximal activity (AC50) is 1.58 µM [rising, partial curve].

As for `COc1ccccc1NC(=O)c1oc2ccccc2c1NC(=O)COc1cccc(C)c1`, the AC50 was 5.01 µM [rising, partial curve].

Regarding `Cc1ccc2oc(-c3ccc(C)c(NC(=O)C(C)(C)Oc4ccc(Cl)cc4)c3)nc2c1`, the half-maximal activity concentration (AC50) was 0.794 µM [falling, partial curve].

For the compound `CCOc1ccc(NC(=O)CSc2oc(-c3ccc(F)cc3)nc2S(=O)(=O)c2ccc(C)cc2)cc1`, the AC50 was 12.6 µM [falling, partial curve].

As to `Clc1ccccc1-c1nnc(COc2ccccc2)o1`, the concentration at half-maximal activity (AC50) is 0.02 µM [rising, full curve].

Turning to `Cc1nc2nc(NC(=O)c3ccc(C(C)(C)C)cc3)[nH]n2c(=O)c1Cc1ccccc1`, the AC50 was 39.8 µM [falling, single point].

Regarding `CCOC(=O)c1ccc(NC(=O)CSc2nc3cc4ccccc4cc3[nH]2)cc1`, the concentration at half-maximal activity (AC50) is 5.01 µM [falling, full curve].

Take `O=C(Nc1ccc(Br)cc1F)c1cc(S(=O)(=O)NC2CCCCC2)ccc1F`: the half-maximal activity concentration (AC50) was 0.2 µM [falling, full curve, poor fit].

As to `CCCn1nc(NC(=O)c2ccncc2)c2cc3ccccc3nc21`, the half-maximal activity concentration (AC50) is 12.6 µM [falling, partial curve].

As to `CCOc1ccccc1-n1c(SCC(=O)N(C(C)C)C(C)C)nnc1-c1cccnc1`, the AC50 is 15.8 µM [falling, partial curve].

Turning to `COc1ccc(CNC(=O)Cn2ccc3cc(S(=O)(=O)N4CCCCC4)ccc32)cc1OC`, the half-maximal activity concentration (AC50) was 0.02 µM [falling, full curve, poor fit].

In the case of `O=C(CCSCc1cccc(Cl)c1)N1CCN(c2ccc(Cl)cc2)CC1`, the AC50 was 15.8 µM [falling, partial curve].

As for `N#Cc1cccc(-c2nc(NCCN3CCOCC3)c3ccccc3n2)c1`, the AC50 is 7.94 µM [falling, single point] [measured here: IkB-luc green channel].

With `Cc1ccccc1C(=O)N1CC(=O)Nc2ccc(Cl)cc2C1c1ccccc1` (stereo not drawn), the AC50 was 25.1 µM [falling, partial curve].

With `CCOc1ccc(NS(=O)(=O)c2ccc(C(=O)N(C)C)s2)cc1`, the concentration at half-maximal activity (AC50) is 0.0158 µM [falling, full curve, poor fit].

As for `O=C(c1cccc(Cl)c1)N1c2nc(-c3ccco3)nn2C2(CCCCC2)[C@@H]2CCCC[C@@H]21`, the AC50 was 31.6 µM [falling, single point].

`C#CCn1c(=NC(=O)c2ccc3c(c2)OCCO3)sc2cc(OC)c(OC)cc21`: the half-maximal activity concentration (AC50) is 0.398 µM [falling, full curve, poor fit].

For the compound `COc1ccc(NC(=O)CSc2nnc(CNC(=O)c3ccco3)n2-c2ccccc2OC)cc1`, the half-maximal activity concentration (AC50) is 2 µM [falling, full curve, poor fit].

For `Cc1nn(-c2ccc(N3CCCCC3)nn2)c(C)c1CCC(=O)Nc1ccc(F)cc1F`, the AC50 was 12.6 µM [falling, partial curve].

As for `COc1cccc(-c2cc(C(=O)N3CCc4ccccc4C3)no2)c1`, the AC50 was 20 µM [falling, single point].

For the compound `Cc1nc2ccc(S(=O)(=O)CCC(=O)Nc3ccc(Cl)cc3)cc2s1`, the half-maximal activity concentration (AC50) is 12.6 µM [falling, partial curve].

`COC(=O)c1cc(-c2ccc3c(c2)OCO3)nc2ccccc12`: the AC50 was 20 µM [falling, partial curve].

As for `COc1ccc(S(=O)(=O)N2CCN(Cc3ccc(Cl)cc3)CC2)cc1`, the half-maximal activity concentration (AC50) is 25.1 µM [falling, partial curve].

As to `CCC(Sc1nc2ccccc2s1)C(=O)Nc1nnc(C)s1` (stereo not drawn), the half-maximal activity concentration (AC50) is 20 µM [falling, partial curve].

In the case of `O=C(Nc1ccc2c(c1)OCO2)c1nn(-c2ccccc2)c(=O)c2ccccc12`, the concentration at half-maximal activity (AC50) was 25.1 µM [falling, partial curve].

Consider `CC1(C)N=C(SCc2ccccc2Cl)c2ccccc2N1`, for which the AC50 was 39.8 µM [falling, single point].

Take `Cc1cccc(-c2noc(-c3cccnc3NCc3ccc(Cl)cc3)n2)c1`: the AC50 is 3.98 µM [falling, full curve].

Regarding `COc1ccc2c(c1)sc1ncc(C(=O)NCc3ccccc3F)c(=O)n12`, the concentration at half-maximal activity (AC50) is 5.01 µM [rising, partial curve].

For the compound `COc1ccc(S(=O)(=O)Nc2ccc3oc4c(c3c2)CCCC4)cc1`, the AC50 was 39.8 µM [falling, single point].

In the case of `Cc1cc(Cl)ccc1OCC(=O)Nc1ccccc1N1CCOCC1`, the AC50 is 12.6 µM [falling, partial curve].

Take `CCOc1ccccc1CNC(=O)c1ccc2c(c1)N(Cc1ccc(C)cc1)CCS2`: the concentration at half-maximal activity (AC50) was 0.158 µM [falling, full curve].

`CC(=O)c1cccc(NC(=O)CSc2nc(=O)n(Cc3ccco3)c3c2CCC3)c1`: the AC50 is 25.1 µM [falling, partial curve].

The record behind these values is PubChem BioAssay AID445 (National Center for Advancing Translational Sciences (NCATS), 2006).
